From article PMC12992792
Read-outs that look alike come from different tables or passages of the source. Results are given in words; binding and its absence hold for the method and conditions named. Some entries that bind do so weakly or less than the wild type.

Amino acid sequences for entries named in this document (tags omitted).
UniProt O46036: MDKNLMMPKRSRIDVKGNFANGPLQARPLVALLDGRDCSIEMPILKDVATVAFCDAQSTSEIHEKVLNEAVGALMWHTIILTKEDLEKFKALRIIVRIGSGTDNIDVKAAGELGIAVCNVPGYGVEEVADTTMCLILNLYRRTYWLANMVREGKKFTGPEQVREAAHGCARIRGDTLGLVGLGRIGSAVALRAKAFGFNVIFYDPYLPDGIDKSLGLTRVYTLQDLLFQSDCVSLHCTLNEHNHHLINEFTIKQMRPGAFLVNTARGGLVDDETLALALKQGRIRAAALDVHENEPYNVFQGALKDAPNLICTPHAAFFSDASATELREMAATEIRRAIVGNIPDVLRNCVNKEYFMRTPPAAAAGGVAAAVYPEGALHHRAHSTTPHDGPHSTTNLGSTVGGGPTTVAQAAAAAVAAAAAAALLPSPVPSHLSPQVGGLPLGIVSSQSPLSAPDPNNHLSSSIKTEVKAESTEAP
UniProt Q27268: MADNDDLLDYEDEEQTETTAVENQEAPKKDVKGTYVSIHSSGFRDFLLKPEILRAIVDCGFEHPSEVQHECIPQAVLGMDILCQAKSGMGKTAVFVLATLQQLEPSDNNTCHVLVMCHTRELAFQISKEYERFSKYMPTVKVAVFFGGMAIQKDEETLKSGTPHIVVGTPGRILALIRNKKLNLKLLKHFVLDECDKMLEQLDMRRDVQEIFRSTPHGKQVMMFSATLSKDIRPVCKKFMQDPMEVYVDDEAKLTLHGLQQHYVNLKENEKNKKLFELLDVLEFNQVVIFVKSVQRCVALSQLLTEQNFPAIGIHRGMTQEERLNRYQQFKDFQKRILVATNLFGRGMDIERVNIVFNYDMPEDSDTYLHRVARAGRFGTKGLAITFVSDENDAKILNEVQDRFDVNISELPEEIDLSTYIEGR

What was measured:
Assay in all cases: two-hybrid; all-versus-all matrix screen in S. cerevisiae; every protein as bait (DBD) and prey (AD), tagged N- or C-terminally, eight configurations a pair; mating on YPDA, selection on -His/-Trp/-Leu/-Ura/-Ade, 30 °C, four to seven days; replication score cutoff 0.75
[1] = target: D. melanogaster C-terminal Binding Protein (D. melanogaster) (UniProt O46036)
[2] = target: D. melanogaster UAP56 (D. melanogaster) (UniProt Q27268)
[3] = target: T1, D. melanogaster Deadlock (D. melanogaster), Q9VIF5; details: remark: other sources report otherwise
T1 chain: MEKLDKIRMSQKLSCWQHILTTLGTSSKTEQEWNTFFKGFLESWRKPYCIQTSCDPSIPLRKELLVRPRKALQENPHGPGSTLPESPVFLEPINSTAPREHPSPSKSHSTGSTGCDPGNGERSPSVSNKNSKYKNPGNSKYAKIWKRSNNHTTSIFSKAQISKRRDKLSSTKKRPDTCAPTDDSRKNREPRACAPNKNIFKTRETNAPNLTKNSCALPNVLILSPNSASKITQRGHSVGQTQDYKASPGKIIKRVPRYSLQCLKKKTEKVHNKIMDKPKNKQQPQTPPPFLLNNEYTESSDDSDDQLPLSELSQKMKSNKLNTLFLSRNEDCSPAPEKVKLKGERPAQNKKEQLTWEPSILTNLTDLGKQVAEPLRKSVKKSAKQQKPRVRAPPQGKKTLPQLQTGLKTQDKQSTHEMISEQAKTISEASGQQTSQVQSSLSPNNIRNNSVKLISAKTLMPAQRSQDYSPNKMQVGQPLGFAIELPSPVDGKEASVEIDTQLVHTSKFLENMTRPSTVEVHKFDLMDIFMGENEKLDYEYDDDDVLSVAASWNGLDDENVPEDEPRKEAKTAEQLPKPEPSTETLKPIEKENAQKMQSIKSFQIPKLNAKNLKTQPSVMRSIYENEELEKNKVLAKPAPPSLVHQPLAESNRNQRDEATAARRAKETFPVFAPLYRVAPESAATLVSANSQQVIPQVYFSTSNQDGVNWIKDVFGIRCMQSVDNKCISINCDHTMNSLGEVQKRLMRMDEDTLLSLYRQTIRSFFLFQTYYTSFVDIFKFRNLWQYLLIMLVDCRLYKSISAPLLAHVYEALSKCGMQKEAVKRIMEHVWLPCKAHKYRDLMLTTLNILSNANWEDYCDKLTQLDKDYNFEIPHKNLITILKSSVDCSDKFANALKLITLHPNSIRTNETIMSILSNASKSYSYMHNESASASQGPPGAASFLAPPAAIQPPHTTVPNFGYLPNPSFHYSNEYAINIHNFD

[4] = target: D. melanogaster C-terminal Binding Protein (D. melanogaster) (UniProt O46036); remark: listed apart in the source

With “D. melanogaster C-terminal Binding Protein (from UniProt O46036 1-476)” the binding [1] was “binds”.

“D. melanogaster UAP56 (from UniProt Q27268 1-424)” was tested, and the binding [2] was “binds”.

B1: D. melanogaster Moonshiner, Q9VYQ0 1-172 (protein)
chain: MAKILPTDGIWIPESCSFPEDVMIDMMEGLFRDVPNLTHKEYLALADLQSRWMAKLANRQPESNPLPPKPKKRKKIAPKKQDQPVEEKGSEVDIYDVDDNEMVNNRIYIPRLRSAWRARYFNIMMRAFVIKRGLLNKHINWQILDKIMAAPDAEGQAELQAFVDKVVAGQEM
For B1, the binding [3] was “no binding”.

B2: D. melanogaster Cutoff (protein, UniProt Q9V629 1-384)
chain: MNSNYTILNIRAHSWAEKDNLVFPTITKPVSNGWFAWSPIGQFEPNSQKVPYVVVPPSIKFPISLRYKDSPPKLEKKPNIFLDNMLQYIESSSYMYVMVRNNQQAQLNANIVCTSEVLELMMCAPYEKKTGWSLGVTRYRNTMYICRIDVEQPDPIDQDNLKRAMQEFWLRNLRTHCVFENGIKMHQHNQSSEEHLRFHGVFSFDLNGNRVLFDSPVLAEMPSTTLNGSALSWVDLQIRPMFMSRLDWPEHNRTEALKWWVKCFLLGIESLYIARRDENAHVHNIEKTLVRDLWKSCEKDWSPTVCANFMIYLLNCISQVMAPIDCPSTVYLFQFDASQGTVSYKGLRGRNQYTFVSDWFRMMLDDHTNDMCKTPNLQTMSSIV
With B2 the binding [4] was “no binding”.
